For at least one compound, name, drawing or mass did not settle the structure.
Test system: cytoplasmic mutant R636S RBM20 condensates in H9C2 cells
Assay: Screening assay for compounds that modulate cytoplasmic mutant R636S RBM20 condensates (fluorescence imaging)
Format: cell-based, rat
Conditions: H9C2 cells transiently transfected with R636S RBM20-Dendra2; 20 μM test compound; incubated 24 hours; versus DMSO
Method: H9C2 cells were engineered using transient transfection to express a mutant R636S RBM20 polypeptide linked to a Dendra2 label. Following transfection, cells were incubated to allow for RBM20 polypeptide expression for about 16 hours. H9C2 cells were seeded into 384-well plates, and admixed with a control (DMSO) or 20 μM test compound, and then incubated for 24 hours prior to fixation, staining (e.g., with DAPI), and capturing of fluorescent images. H9C2 cells not transfected with mutant R636S RBM20 polypeptide served as controls. Three replicates were run for each compound. Fluorescent images of cells, and/or portions of cells, were captured using a DeltaVision wide-field deconvoluted system.
Non-transfected H9C2 cells served as control. […] Their down-regulation levels are indicated as Z score under each panel.

## C[C@H](CCC(=O)O)[C@H]1CC[C@H]2[C@@H]3CC[C@@H]4C[C@H](O)CC[C@]4(C)[C@H]3CC[C@]12C [lithocholic acid]
  effect on cytoplasmic mutant R636S RBM20 condensates: able to reduce cytoplasmic mutant R636S RBM20 condensates

From patent publication US20220365070A1, “COMPOSITIONS, SYSTEMS, AND METHODS FOR IDENTIFYING A COMPOUND THAT MODULATES ONE OR MORE CHARACTERISTICS ASSOCIATED WITH A RBM20 CONDENSATE AND/OR A RBM20 POLYPEPTIDE” (Dewpoint Therapeutics, Inc., priority 2019, published 2022)
